Where a name gives a salt, the structure may show the parent alone. For some assays here: At least one structure is not confirmed: it was looked up by name or label, or the drawing left a doubt. Some results were stated once for a whole list of compounds, not compound by compound.
Experiments:
[1] = target: T1, α3β4 receptor agonist recognition sites (Rattus norvegicus, UniProt P04757+P12392); assay: [3H]EB ligand binding in membrane homogenates from KXα3β4R2 cells; details: highest concentration used (1 mM)
T1 construct: expressed in transfected cells
From the text: Bound and free ligands were separated by vacuum filtration through Whatman GF/C filters treated with 0.5% polyethylenimine. […] Specific binding was defined as the difference between total binding and nonspecific binding.

Protein sequences, listed by entry. Tags and fused reporters are not part of them. Residues count along the entry.
UniProt P04757, 26-499: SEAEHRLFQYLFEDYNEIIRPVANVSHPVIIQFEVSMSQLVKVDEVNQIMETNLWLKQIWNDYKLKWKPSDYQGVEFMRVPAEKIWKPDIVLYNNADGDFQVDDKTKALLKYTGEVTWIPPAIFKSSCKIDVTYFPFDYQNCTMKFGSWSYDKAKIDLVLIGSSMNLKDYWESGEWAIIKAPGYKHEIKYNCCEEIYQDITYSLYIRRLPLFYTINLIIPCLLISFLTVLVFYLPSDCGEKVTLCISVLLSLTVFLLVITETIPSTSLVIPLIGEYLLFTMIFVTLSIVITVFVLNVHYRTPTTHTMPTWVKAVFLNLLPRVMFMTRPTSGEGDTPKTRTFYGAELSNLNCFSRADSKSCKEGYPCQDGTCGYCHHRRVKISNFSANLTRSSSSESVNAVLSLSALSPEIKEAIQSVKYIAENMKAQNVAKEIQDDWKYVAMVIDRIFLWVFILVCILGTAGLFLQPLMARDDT
UniProt P12392, 21-495: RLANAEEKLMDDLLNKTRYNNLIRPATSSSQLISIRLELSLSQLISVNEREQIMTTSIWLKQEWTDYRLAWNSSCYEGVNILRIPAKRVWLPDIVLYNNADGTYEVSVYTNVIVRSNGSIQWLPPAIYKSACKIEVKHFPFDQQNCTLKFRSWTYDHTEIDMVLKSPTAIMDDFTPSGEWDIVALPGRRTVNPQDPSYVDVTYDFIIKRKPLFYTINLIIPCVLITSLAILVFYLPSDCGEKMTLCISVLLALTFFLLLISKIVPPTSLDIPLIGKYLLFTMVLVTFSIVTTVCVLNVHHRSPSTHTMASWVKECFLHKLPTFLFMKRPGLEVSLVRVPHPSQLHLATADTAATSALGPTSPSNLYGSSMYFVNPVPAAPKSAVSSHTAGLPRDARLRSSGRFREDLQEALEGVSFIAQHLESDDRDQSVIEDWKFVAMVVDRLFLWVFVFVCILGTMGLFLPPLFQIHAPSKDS

[2] = tested on: morphine, methamphetamine, and nicotine self-administration; details: rats, 5-30 mg/kg; cited from earlier work

Row | Structure (SMILES) | inhibition of [3H]EB binding [1] | self-administration of morphine, methamphetamine, and nicotine [2]
1 | CCC(=O)C(CC(C)N(C)C)(c1ccccc1)c1ccccc1 (racemic) [methadone, (O)-Methadone hydrochloride] | less than 50% | –
2 | CN1CC[C@@]23CCCC[C@@H]2[C@@H]1Cc1ccc(O)cc13 [Dextrorphan] | – | decrease

From patent publication US20070129434A1, “Analgesics and methods of use” (priority 2002, published 2007)
